Source: article PMC8659020, “Ferrocene-Labelled Electroactive Aptamer-Based Sensors (Aptasensors) for Glycated Haemoglobin”
Construct, isoform or probe ends are uncertain for at least one entry.

Experiments:
[1] = tested on: Glycated haemoglobin (HbA1c); assay: electrochemical impedance spectroscopy; settings: 5 mM [Fe(CN)6]3-/4-, 0.1 M KCl, 5-40 ug/mL protein, 5' ferrocene, 3' thiol (SH), immobilized on gold screen-printed electrode, DPV in 10 mM Tris-HCl (stated for clinical-range test; pH and temperature not given), EIS in 5 mM [Fe(CN)6]3-/4-, aptamer loaded in 5 mM MgCl2, commercial protein, label: 5' ferrocene, single-stranded DNA
[2] = tested on: Glycated haemoglobin (HbA1c); assay: differential pulse voltammetry (electrochemical aptasensor); settings: aptamer immobilized on electrode; 5' ferrocene; 3' thiol (SH), immobilized on gold screen-printed electrode; DPV in 10 mM Tris-HCl (stated for clinical-range test; pH and temperature not given); EIS in 5 mM [Fe(CN)6]3-/4-, 0.1 M KCl; aptamer loaded in 5 mM MgCl2; commercial protein; label: 5' ferrocene; single-stranded DNA

Sequence: GGGGACACAGCAACACACCCACCCACCAGCCCCAGCATCATGCCCATCCGTCGTGTGTG [HbA1c aptamer (I)]
- binding result [1]: binds
- Kd [2]: 11.7 µg/mL
